This is one part of the list.
What was measured:
Test in all cases: log2 fold change, soluble protein after heating vs DMSO (PISA); higher = thermal stabilisation; K562 lysate, 10 uM; active = over 0.2 and 3.5 SD of the protein, either way, in both replicates (recomputed)
[1] = compound: NCC(=O)Nc1ccc(-n2nc(C(F)(F)F)cc2-c2ccc3c(ccc4ccccc43)c2)cc1
Summary of the method: (§1)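 Quantification was by TMTpro 16plex LC-MS/MS with equalised channel sums, applied to the supernatant after 21,000xg for 90 min. Samples were crude K562 extract at 1 mg/mL protein in PBS pH 7.4 with 1 mM MgCl2, treated with 10 μM compound for 30 min, heated for 3 min across 48°C-58°C, pooled and brought to 0.5% NP-40 at 4°C. Values are log-two fold changes in thermal stability relative to solvent controls, from duplicates.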

Protein sequences, listed by entry. Tags and fused reporters are not part of them. Lines headed by an entry give the natural chain unless they say otherwise; changes in a name come on top.
UniProt Q8TEW0: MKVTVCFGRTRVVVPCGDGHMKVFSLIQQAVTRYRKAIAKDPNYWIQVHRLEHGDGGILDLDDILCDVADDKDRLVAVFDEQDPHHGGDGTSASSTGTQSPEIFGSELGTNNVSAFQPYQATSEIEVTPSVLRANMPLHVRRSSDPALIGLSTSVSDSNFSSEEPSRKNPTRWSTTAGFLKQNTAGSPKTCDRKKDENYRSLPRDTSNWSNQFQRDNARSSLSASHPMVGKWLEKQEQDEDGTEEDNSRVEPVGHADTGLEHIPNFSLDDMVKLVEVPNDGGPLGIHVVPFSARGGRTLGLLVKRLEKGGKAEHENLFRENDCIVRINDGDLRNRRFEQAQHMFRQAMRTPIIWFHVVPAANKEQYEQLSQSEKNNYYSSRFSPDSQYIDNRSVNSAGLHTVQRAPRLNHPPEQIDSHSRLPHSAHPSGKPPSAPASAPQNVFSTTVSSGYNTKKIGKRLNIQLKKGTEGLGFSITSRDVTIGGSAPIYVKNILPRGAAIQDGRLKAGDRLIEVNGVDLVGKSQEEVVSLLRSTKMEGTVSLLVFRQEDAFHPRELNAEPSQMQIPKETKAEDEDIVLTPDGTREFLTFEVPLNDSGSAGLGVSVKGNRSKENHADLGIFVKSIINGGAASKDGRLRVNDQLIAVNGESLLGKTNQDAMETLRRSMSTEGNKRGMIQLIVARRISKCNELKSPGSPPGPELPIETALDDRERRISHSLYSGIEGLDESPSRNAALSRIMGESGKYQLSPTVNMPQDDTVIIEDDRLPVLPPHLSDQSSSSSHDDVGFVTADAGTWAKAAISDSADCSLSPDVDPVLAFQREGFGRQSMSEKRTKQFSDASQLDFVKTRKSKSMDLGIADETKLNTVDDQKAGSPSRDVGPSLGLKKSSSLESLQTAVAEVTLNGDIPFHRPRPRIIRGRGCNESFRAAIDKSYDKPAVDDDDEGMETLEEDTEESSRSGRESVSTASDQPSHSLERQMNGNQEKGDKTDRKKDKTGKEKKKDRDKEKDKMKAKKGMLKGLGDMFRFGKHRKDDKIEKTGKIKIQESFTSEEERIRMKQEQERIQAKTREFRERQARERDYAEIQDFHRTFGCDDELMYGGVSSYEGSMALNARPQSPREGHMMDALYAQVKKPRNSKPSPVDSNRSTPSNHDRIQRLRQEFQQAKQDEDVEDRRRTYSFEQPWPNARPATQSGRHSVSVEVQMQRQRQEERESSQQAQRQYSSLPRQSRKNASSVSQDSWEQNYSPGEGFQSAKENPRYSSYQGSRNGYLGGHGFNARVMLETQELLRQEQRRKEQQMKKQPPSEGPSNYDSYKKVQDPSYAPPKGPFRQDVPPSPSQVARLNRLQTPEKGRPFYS
UniProt O95747, whole entry, looked up: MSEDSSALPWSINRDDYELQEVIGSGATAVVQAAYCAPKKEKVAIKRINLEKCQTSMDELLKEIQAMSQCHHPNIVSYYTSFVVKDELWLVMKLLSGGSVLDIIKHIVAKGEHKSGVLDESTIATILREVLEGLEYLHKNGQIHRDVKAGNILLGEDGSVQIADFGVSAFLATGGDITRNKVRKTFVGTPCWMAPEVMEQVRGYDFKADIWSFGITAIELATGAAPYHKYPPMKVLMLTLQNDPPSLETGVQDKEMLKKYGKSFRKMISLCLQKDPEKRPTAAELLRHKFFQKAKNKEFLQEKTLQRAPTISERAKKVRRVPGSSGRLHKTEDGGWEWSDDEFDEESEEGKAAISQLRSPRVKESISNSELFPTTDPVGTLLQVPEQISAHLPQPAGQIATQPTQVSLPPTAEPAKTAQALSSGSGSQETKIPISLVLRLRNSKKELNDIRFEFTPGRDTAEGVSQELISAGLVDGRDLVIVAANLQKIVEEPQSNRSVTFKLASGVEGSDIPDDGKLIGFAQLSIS
UniProt Q9BY11: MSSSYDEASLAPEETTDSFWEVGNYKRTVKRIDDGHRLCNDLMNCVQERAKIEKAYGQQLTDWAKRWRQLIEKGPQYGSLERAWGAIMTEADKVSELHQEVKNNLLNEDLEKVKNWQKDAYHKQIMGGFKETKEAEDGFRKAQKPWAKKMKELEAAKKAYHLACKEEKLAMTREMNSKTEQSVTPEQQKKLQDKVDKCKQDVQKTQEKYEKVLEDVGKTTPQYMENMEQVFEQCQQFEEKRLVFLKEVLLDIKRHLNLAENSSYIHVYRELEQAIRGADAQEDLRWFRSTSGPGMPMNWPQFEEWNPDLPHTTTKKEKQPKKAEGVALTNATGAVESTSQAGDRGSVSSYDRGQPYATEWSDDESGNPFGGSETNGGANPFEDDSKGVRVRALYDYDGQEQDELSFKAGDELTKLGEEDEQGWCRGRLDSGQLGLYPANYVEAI
UniProt Q9UBD5: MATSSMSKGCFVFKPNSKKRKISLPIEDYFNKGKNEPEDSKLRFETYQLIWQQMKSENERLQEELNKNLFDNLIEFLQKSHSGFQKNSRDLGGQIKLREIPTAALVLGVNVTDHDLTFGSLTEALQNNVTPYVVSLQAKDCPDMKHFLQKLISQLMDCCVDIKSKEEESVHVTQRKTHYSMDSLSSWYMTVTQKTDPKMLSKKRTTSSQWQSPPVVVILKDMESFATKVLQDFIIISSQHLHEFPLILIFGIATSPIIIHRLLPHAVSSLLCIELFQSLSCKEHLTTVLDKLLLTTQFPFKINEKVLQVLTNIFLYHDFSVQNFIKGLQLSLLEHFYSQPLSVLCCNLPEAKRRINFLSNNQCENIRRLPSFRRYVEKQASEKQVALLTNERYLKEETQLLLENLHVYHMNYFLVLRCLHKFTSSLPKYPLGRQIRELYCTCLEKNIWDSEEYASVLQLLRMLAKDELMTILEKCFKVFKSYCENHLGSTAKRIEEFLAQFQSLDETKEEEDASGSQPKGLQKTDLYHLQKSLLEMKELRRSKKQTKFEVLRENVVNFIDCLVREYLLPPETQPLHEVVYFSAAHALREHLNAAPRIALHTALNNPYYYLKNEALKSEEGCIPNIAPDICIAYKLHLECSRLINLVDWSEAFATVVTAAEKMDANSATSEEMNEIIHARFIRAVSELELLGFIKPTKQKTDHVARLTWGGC
UniProt P07237: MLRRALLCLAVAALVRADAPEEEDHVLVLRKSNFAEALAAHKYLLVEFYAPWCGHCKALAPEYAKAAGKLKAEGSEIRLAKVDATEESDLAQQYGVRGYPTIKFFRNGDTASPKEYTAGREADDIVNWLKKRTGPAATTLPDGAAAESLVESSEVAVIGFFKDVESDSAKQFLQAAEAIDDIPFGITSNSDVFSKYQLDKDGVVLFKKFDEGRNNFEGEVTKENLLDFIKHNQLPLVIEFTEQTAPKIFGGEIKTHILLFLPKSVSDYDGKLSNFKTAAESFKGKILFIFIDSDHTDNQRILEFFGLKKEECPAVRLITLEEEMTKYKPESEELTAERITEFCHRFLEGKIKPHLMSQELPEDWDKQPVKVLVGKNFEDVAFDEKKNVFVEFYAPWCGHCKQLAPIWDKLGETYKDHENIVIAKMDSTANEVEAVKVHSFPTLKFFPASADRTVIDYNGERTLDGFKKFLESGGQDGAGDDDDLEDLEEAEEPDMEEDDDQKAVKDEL
UniProt Q9NWT1: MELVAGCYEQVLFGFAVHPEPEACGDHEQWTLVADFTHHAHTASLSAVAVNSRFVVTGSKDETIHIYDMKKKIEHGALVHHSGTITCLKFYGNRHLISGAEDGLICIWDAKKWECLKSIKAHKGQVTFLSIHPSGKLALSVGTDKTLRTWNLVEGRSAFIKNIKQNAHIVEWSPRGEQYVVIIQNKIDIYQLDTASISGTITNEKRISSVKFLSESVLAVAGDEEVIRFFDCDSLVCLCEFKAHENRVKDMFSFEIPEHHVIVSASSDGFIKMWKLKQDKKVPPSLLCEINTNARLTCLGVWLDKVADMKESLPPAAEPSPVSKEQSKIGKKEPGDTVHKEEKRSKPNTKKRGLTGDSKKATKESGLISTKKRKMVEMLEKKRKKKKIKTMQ
UniProt Q9BRP4: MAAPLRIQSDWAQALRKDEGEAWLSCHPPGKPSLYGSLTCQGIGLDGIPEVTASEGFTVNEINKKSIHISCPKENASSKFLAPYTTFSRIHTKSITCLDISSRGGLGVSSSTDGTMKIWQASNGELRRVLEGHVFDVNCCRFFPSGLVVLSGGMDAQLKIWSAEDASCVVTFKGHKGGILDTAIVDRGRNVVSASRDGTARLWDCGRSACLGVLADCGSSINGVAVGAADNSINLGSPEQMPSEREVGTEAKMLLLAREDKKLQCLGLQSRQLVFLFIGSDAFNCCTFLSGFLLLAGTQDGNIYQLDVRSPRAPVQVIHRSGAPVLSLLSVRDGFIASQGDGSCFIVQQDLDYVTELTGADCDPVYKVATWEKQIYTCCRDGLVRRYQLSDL
UniProt Q13415: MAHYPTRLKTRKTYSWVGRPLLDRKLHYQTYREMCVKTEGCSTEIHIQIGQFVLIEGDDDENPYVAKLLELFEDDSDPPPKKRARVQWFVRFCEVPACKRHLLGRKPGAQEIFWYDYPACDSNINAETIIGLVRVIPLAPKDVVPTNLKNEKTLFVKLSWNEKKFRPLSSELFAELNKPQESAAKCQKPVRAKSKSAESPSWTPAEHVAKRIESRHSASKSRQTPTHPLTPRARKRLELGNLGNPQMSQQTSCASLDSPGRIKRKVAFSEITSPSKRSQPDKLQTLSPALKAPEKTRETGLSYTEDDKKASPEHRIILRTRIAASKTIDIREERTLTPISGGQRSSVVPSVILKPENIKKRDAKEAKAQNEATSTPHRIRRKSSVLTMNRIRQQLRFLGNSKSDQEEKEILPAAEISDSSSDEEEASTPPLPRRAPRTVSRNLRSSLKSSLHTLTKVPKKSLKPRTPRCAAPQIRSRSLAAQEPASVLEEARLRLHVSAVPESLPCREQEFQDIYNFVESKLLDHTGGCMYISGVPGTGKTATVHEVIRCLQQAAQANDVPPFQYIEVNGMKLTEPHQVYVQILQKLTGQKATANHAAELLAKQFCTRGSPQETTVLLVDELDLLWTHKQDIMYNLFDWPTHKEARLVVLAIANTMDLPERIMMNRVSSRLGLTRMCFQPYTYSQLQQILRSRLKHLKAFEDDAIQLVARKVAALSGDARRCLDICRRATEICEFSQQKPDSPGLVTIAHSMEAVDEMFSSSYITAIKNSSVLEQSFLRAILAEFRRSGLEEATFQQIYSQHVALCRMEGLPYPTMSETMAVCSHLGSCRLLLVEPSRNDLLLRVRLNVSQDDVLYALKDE
UniProt Q58A45: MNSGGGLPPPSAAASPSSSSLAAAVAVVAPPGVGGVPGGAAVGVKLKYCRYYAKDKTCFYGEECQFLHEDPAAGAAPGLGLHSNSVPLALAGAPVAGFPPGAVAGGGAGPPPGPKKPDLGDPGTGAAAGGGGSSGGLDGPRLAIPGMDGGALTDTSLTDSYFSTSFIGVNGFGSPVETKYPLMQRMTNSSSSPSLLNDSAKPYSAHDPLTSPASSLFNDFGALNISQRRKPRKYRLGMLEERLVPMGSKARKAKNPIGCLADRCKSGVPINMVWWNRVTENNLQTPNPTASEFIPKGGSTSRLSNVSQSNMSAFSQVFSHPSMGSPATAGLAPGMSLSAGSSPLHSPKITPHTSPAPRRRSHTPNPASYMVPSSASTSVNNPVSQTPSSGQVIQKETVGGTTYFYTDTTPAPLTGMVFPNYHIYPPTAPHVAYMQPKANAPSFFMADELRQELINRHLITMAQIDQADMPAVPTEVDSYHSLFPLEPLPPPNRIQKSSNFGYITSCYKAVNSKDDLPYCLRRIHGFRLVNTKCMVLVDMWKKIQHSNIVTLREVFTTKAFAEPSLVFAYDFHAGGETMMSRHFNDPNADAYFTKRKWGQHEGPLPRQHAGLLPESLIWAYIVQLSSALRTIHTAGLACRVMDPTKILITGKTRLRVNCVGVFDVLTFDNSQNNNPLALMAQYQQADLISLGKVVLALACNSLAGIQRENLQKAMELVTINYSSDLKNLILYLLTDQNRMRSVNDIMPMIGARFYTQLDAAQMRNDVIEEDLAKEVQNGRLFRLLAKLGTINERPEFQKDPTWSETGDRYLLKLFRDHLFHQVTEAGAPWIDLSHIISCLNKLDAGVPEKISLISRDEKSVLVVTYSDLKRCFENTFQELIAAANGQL
UniProt Q5BKU9: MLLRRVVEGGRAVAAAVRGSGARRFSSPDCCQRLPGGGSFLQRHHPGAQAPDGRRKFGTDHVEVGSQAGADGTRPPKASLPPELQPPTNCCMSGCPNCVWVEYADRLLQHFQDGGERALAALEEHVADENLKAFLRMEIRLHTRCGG
UniProt Q96D31, whole entry, looked up: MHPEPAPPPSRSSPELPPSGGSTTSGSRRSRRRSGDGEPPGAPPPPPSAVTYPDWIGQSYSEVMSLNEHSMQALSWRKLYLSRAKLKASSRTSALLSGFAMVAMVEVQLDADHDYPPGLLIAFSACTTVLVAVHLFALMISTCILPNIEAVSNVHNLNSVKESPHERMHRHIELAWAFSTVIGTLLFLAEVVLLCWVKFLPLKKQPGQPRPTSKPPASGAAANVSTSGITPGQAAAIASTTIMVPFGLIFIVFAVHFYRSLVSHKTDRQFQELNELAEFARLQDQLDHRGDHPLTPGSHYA

vorinostat = compound: O=C(CCCCCCC(=O)Nc1ccccc1)NO [vorinostat]
Summary of the method: as §1

silmitasertib = compound: O=C(O)c1ccc2c(c1)nc(Nc1cccc(Cl)c1)c1ccncc12 [silmitasertib]
Summary of the method: as §1

[2] = compound: O=C1NC(=O)C(c2cnc3ccccn23)=C1c1cn2c3c(cc(F)cc13)CN(C(=O)N1CCCCC1)CC2
Summary of the method: as §1

entospletinib = compound: c1cn2cc(-c3ccc4cn[nH]c4c3)nc(Nc3ccc(N4CCOCC4)cc3)c2n1 [entospletinib]
Summary of the method: as §1

## PAPSS1 (UniProt O43252)
[1]
  log2 fold change: inactive: -0.006
vorinostat
  log2 fold change: inactive: -0.124
silmitasertib
  log2 fold change: inactive: 0.031
[2]
  log2 fold change: inactive: 0.016
entospletinib
  log2 fold change: inactive: -0.003

## OGDH (UniProt Q02218)
[1]
  log2 fold change: inactive: 0.027
vorinostat
  log2 fold change: inactive: 0.037
silmitasertib
  log2 fold change: inactive: -0.004
[2]
  log2 fold change: inactive: 0.045
entospletinib
  log2 fold change: inactive: 0.019

## PANK3 (UniProt Q9H999)
[1]
  log2 fold change: inactive: 0.039
vorinostat
  log2 fold change: inactive: -0.056
silmitasertib
  log2 fold change: inactive: 0.124
entospletinib
  log2 fold change: inactive: -0.036

## PARD3 (UniProt Q8TEW0)
[1]
  log2 fold change: inactive: -0.071
vorinostat
  log2 fold change: inactive: -0.314
silmitasertib
  log2 fold change: inactive: -0.118
[2]
  log2 fold change: inactive: -0.081
entospletinib
  log2 fold change: inactive: -0.003

## NUP93 (UniProt Q8N1F7)
[1]
  log2 fold change: inactive: -0.011
vorinostat
  log2 fold change: active: -0.242
silmitasertib
  log2 fold change: inactive: 0.067
[2]
  log2 fold change: inactive: 0.015
entospletinib
  log2 fold change: inactive: 0.022

## NUP88 (UniProt Q99567)
[1]
  log2 fold change: inactive: 0.002
vorinostat
  log2 fold change: inactive: -0.084
silmitasertib
  log2 fold change: inactive: -0.052
[2]
  log2 fold change: inactive: -0.007
entospletinib
  log2 fold change: inactive: -0.013

## OTUD7B (UniProt Q6GQQ9)
[1]
  log2 fold change: inactive: 0.044
vorinostat
  log2 fold change: active: 0.331
silmitasertib
  log2 fold change: inactive: -0.038
[2]
  log2 fold change: inactive: 0.194
entospletinib
  log2 fold change: inactive: -0.04

## PAAT (UniProt Q9H8K7)
[1]
  log2 fold change: inactive: -0.016
vorinostat
  log2 fold change: inactive: -0.228
silmitasertib
  log2 fold change: inactive: 0
[2]
  log2 fold change: inactive: 0.063
entospletinib
  log2 fold change: inactive: -0.042

## OXSR1 (UniProt O95747)
[1]
  log2 fold change: inactive: -0.007
vorinostat
  log2 fold change: inactive: -0.173
silmitasertib
  log2 fold change: inactive: 0.04
[2]
  log2 fold change: inactive: -0.005
entospletinib
  log2 fold change: inactive: 0.008

## PACSIN1 (UniProt Q9BY11)
[1]
  log2 fold change: inactive: -0.062
vorinostat
  log2 fold change: inactive: 0.133
silmitasertib
  log2 fold change: inactive: 0.041
entospletinib
  log2 fold change: inactive: 0.001

## PAK2 (UniProt Q13177)
[1]
  log2 fold change: inactive: -0.004
vorinostat
  log2 fold change: inactive: 0.1
silmitasertib
  log2 fold change: inactive: -0.013
[2]
  log2 fold change: inactive: -0.02
entospletinib
  log2 fold change: inactive: 0.002

## PAICS (UniProt E9PBS1)
[1]
  log2 fold change: inactive: 0.022
vorinostat
  log2 fold change: inactive: -0.057
silmitasertib
  log2 fold change: inactive: 0.08
[2]
  log2 fold change: inactive: 0.186
entospletinib
  log2 fold change: inactive: 0.02

## OTUB1 (UniProt Q96FW1)
[1]
  log2 fold change: inactive: -0.033
vorinostat
  log2 fold change: inactive: 0.014
silmitasertib
  log2 fold change: inactive: -0.018
[2]
  log2 fold change: inactive: -0.015
entospletinib
  log2 fold change: inactive: -0.015

## PARD6B (UniProt Q9BYG5)
[1]
  log2 fold change: inactive: 0.01
vorinostat
  log2 fold change: inactive: -0.05
silmitasertib
  log2 fold change: inactive: 0.022
[2]
  log2 fold change: inactive: -0.026
entospletinib
  log2 fold change: inactive: -0.028

## P3H1 (UniProt Q32P28)
[1]
  log2 fold change: inactive: -0.019
vorinostat
  log2 fold change: inactive: 0.052
silmitasertib
  log2 fold change: inactive: 0.021
[2]
  log2 fold change: inactive: 0.01
entospletinib
  log2 fold change: inactive: 0

## ORC3 isoform 2 (UniProt Q9UBD5)
[1]
  log2 fold change: inactive: -0.012
vorinostat
  log2 fold change: active: -0.409
silmitasertib
  log2 fold change: inactive: 0.023
[2]
  log2 fold change: inactive: 0.052
entospletinib
  log2 fold change: inactive: 0.013

## OPA3 (UniProt Q9H6K4)
[1]
  log2 fold change: inactive: -0.038
vorinostat
  log2 fold change: inactive: 0.052
silmitasertib
  log2 fold change: inactive: 0.036
[2]
  log2 fold change: inactive: 0.066
entospletinib
  log2 fold change: inactive: 0.081

## P4HB (UniProt P07237)
[1]
  log2 fold change: inactive: 0.001
vorinostat
  log2 fold change: inactive: 0.102
silmitasertib
  log2 fold change: inactive: 0.013
[2]
  log2 fold change: inactive: -0.019
entospletinib
  log2 fold change: inactive: 0.018

## NUP160 (UniProt Q12769)
[1]
  log2 fold change: inactive: -0.036
vorinostat
  log2 fold change: active: -0.291
silmitasertib
  log2 fold change: inactive: 0.082
[2]
  log2 fold change: inactive: 0.022
entospletinib
  log2 fold change: inactive: 0.009

## NUP42 (UniProt O15504)
[1]
  log2 fold change: inactive: 0.133
vorinostat
  log2 fold change: inactive: 0.087
silmitasertib
  log2 fold change: inactive: -0.209
[2]
  log2 fold change: inactive: 0.031
entospletinib
  log2 fold change: inactive: -0.057

## PANK2 (UniProt Q9BZ23)
[1]
  log2 fold change: inactive: 0
[2]
  log2 fold change: inactive: -0.012
entospletinib
  log2 fold change: inactive: -0.023

## PACSIN2 (UniProt Q9UNF0)
[1]
  log2 fold change: inactive: 0
vorinostat
  log2 fold change: inactive: 0.013
silmitasertib
  log2 fold change: inactive: 0.003
[2]
  log2 fold change: inactive: -0.005
entospletinib
  log2 fold change: inactive: 0.014

## PACS1 (UniProt Q6VY07)
[1]
  log2 fold change: inactive: -0.034
vorinostat
  log2 fold change: inactive: 0.005
silmitasertib
  log2 fold change: inactive: 0.005
[2]
  log2 fold change: inactive: -0.026
entospletinib
  log2 fold change: inactive: -0.018

## PAF1 (UniProt Q8N7H5)
[1]
  log2 fold change: inactive: 0.007
vorinostat
  log2 fold change: inactive: -0.013
silmitasertib
  log2 fold change: inactive: 0.004
[2]
  log2 fold change: inactive: 0.015
entospletinib
  log2 fold change: inactive: 0.009

## P4HA2 (UniProt O15460)
[1]
  log2 fold change: inactive: 0.007
vorinostat
  log2 fold change: inactive: -0.016
silmitasertib
  log2 fold change: inactive: 0.011
[2]
  log2 fold change: inactive: 0.014
entospletinib
  log2 fold change: inactive: 0

## OGFOD2 (UniProt Q6N063)
[1]
  log2 fold change: inactive: 0.023
vorinostat
  log2 fold change: inactive: -0.075
silmitasertib
  log2 fold change: inactive: 0.038
[2]
  log2 fold change: inactive: 0.022
entospletinib
  log2 fold change: inactive: -0.001

## OGFR (UniProt Q9NZT2)
[1]
  log2 fold change: inactive: -0.036
vorinostat
  log2 fold change: active: -0.285
silmitasertib
  log2 fold change: inactive: 0.02
[2]
  log2 fold change: inactive: -0.018
entospletinib
  log2 fold change: inactive: -0.061

## OGA (UniProt O60502)
[1]
  log2 fold change: inactive: 0.003
vorinostat
  log2 fold change: inactive: -0.124
silmitasertib
  log2 fold change: inactive: -0.006
[2]
  log2 fold change: inactive: 0.013
entospletinib
  log2 fold change: inactive: 0.009

## OSBPL11 (UniProt Q9BXB4)
[1]
  log2 fold change: inactive: 0.025
vorinostat
  log2 fold change: inactive: 0.06
silmitasertib
  log2 fold change: inactive: 0.102
[2]
  log2 fold change: inactive: -0.008
entospletinib
  log2 fold change: inactive: 0.008

## NUP58 (UniProt Q9BVL2)
[1]
  log2 fold change: inactive: -0.057
vorinostat
  log2 fold change: inactive: 0.013
silmitasertib
  log2 fold change: inactive: -0.008
[2]
  log2 fold change: inactive: -0.036
entospletinib
  log2 fold change: inactive: -0.051

## PAK1IP1 (UniProt Q9NWT1)
[1]
  log2 fold change: inactive: -0.008
vorinostat
  log2 fold change: inactive: 0.09
silmitasertib
  log2 fold change: inactive: 0.006
[2]
  log2 fold change: inactive: -0.083
entospletinib
  log2 fold change: inactive: 0.046

## P4HA1 isoform 2 (UniProt P13674)
[1]
  log2 fold change: inactive: 0.09
vorinostat
  log2 fold change: inactive: 0.079
silmitasertib
  log2 fold change: inactive: -0.053
[2]
  log2 fold change: inactive: -0.024
entospletinib
  log2 fold change: inactive: -0.033

## PAAF1 (UniProt Q9BRP4)
[1]
  log2 fold change: inactive: -0.021
vorinostat
  log2 fold change: inactive: 0.089
silmitasertib
  log2 fold change: inactive: 0.034
[2]
  log2 fold change: inactive: 0.002
entospletinib
  log2 fold change: inactive: 0.019

## NUP35 (UniProt Q8NFH5)
[1]
  log2 fold change: inactive: -0.137
[2]
  log2 fold change: inactive: 0.012
entospletinib
  log2 fold change: inactive: 0.069

## OAF (UniProt Q86UD1)
vorinostat
  log2 fold change: inactive: 0.243
silmitasertib
  log2 fold change: inactive: 0.022

## OFD1 (UniProt O75665)
[1]
  log2 fold change: inactive: 0.072
entospletinib
  log2 fold change: inactive: -0.018

## OSGEPL1 (UniProt Q9H4B0)
[1]
  log2 fold change: inactive: 0.104
[2]
  log2 fold change: inactive: 0.068
entospletinib
  log2 fold change: inactive: 0.068

## PAOX (UniProt Q6QHF9)
[2]
  log2 fold change: inactive: 0.085

## PALM isoform 2 (UniProt O75781)
vorinostat
  log2 fold change: inactive: 0.049
silmitasertib
  log2 fold change: inactive: -0.13

## ORC1 (UniProt Q13415)
entospletinib
  log2 fold change: inactive: -0.047

## OGG1 isoform 4 (UniProt O15527)
vorinostat
  log2 fold change: inactive: 0.178
silmitasertib
  log2 fold change: inactive: -0.035
entospletinib
  log2 fold change: inactive: -0.144

## PABPC1 (UniProt H0YAR2)
vorinostat
  log2 fold change: inactive: 0.013
silmitasertib
  log2 fold change: inactive: 0.072
[2]
  log2 fold change: inactive: 0.099

## NUP214, A0A494C1F2
vorinostat
  log2 fold change: inactive: -0.152
silmitasertib
  log2 fold change: inactive: -0.03

## PAN3 (UniProt Q58A45)
[2]
  log2 fold change: inactive: 0.073

## OSBPL1A (UniProt Q9BXW6)
vorinostat
  log2 fold change: inactive: 0.128
silmitasertib
  log2 fold change: inactive: -0.19
[2]
  log2 fold change: inactive: -0.14

## PAGE4 (UniProt O60829)
vorinostat
  log2 fold change: active: -0.425
silmitasertib
  log2 fold change: inactive: 0.06
[2]
  log2 fold change: inactive: -0.074
entospletinib
  log2 fold change: inactive: -0.054

## ORMDL3 (UniProt Q8N138)
[2]
  log2 fold change: inactive: 0.192

## OXLD1 (UniProt Q5BKU9)
[2]
  log2 fold change: inactive: 0.202

## OBSCN isoform 6 (UniProt Q5VST9)
vorinostat
  log2 fold change: inactive: -0.063
silmitasertib
  log2 fold change: inactive: 0.098

## NXF2 (UniProt Q9GZY0)
vorinostat
  log2 fold change: inactive: -0.359
silmitasertib
  log2 fold change: inactive: -0.001

## OCIAD1 (UniProt D6RDK6)
[1]
  log2 fold change: inactive: 0.063
entospletinib
  log2 fold change: inactive: -0.038

## PAQR7 (UniProt Q86WK9)
vorinostat
  log2 fold change: inactive: -0.071
silmitasertib
  log2 fold change: inactive: 0.194

## ORAI1 (UniProt Q96D31)
vorinostat
  log2 fold change: inactive: 0.021
silmitasertib
  log2 fold change: inactive: -0.028
[2]
  log2 fold change: inactive: 0.018
entospletinib
  log2 fold change: inactive: -0.034

## OPA3 isoform 2 (UniProt Q9H6K4)
[2]
  log2 fold change: inactive: 0.191

## PARD3B (UniProt Q8TEW8)
vorinostat
  log2 fold change: active: -0.585
silmitasertib
  log2 fold change: inactive: -0.209

## PACS2 isoform 2 (UniProt Q86VP3)
vorinostat
  log2 fold change: inactive: -0.168
silmitasertib
  log2 fold change: inactive: 0.063
[2]
  log2 fold change: inactive: -0.071
entospletinib
  log2 fold change: inactive: -0.035

## OPHN1 (UniProt O60890)
entospletinib
  log2 fold change: inactive: 0.036
